According to article PMC12948423:
These are yes or no findings as the source states them, for the method shown. In cells and extracts the contact can be indirect. Some binding calls cover weakened binding; strength is not graded here. Sequences can lack the tags named with a protein.

By UniProt entry, the sequences of proteins in these tests, tags left out. Where a name states a change or a piece, a line headed by the entry shows the natural chain unless it says otherwise. Residues count along the entry.
UniProt P14625, residues 22-803: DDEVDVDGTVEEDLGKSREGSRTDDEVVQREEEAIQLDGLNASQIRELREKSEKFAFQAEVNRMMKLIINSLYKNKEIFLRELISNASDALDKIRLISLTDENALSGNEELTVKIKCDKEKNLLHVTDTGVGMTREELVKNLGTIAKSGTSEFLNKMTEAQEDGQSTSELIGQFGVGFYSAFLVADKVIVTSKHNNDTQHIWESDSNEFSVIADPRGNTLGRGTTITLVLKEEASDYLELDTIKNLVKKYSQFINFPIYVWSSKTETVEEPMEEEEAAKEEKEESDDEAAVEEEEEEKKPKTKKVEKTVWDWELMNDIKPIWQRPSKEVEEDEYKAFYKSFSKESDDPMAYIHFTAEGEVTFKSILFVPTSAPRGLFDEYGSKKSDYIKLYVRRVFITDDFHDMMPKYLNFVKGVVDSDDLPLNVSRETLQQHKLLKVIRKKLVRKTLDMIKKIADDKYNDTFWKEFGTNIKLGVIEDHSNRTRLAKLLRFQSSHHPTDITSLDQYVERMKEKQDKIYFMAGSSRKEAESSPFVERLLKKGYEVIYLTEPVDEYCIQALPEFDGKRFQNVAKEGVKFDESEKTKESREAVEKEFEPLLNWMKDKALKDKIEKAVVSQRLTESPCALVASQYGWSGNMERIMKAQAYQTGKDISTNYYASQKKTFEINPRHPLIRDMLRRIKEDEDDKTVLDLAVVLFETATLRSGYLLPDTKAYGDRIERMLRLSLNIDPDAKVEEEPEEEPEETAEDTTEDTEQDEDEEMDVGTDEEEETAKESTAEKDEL
UniProt P05556: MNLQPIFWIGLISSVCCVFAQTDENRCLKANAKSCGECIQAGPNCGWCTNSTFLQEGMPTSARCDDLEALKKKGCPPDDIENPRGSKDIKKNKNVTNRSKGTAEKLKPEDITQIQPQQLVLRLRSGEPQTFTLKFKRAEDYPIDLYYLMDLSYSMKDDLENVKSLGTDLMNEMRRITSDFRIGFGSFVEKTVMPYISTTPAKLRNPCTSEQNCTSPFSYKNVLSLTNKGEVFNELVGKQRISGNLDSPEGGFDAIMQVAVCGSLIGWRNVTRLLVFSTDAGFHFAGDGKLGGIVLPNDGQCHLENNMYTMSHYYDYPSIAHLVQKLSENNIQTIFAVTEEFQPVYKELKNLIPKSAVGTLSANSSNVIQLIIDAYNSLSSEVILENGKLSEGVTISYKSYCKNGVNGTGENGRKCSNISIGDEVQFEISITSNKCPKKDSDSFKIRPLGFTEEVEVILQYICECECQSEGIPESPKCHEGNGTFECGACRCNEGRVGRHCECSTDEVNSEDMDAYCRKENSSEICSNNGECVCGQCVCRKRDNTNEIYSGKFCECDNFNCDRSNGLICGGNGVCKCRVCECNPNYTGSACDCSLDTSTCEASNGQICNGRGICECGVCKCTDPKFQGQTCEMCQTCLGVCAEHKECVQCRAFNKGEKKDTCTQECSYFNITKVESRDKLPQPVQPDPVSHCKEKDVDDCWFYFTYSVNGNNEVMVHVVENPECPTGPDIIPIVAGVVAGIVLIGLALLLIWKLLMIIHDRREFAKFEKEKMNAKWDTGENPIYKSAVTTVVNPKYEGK
UniProt P08758: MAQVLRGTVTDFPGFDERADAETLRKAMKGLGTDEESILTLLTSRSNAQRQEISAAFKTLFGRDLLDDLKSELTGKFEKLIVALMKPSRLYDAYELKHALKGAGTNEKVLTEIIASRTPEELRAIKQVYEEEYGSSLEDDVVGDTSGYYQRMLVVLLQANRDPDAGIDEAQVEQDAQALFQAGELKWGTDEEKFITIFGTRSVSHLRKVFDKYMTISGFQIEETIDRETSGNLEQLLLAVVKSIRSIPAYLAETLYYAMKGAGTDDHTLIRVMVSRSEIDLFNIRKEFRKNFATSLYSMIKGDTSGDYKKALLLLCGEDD

biological target: T1, canonical FNDC4 protein (fibronectin III domain containing 4), Myc-FLAG-tagged (human) (UniProt Q9H6D8); test: co-IP; Myc-FLAG-tagged FNDC4 (canonical or truncated) or empty vector overexpressed in iPSC-derived NPCs; precipitated with anti-MYC magnetic beads; partners detected by Western blot
T1 sequence: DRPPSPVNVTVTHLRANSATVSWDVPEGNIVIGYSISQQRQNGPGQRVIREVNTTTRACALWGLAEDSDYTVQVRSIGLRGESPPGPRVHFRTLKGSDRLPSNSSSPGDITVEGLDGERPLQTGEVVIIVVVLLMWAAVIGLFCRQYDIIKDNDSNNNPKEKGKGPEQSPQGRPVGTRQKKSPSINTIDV

Row | binding | Substance
1 | binds | HSP90B1 (from UniProt P14625 22-803)
2 | binds | integrin subunit β-1 (ITGB1) (from UniProt P05556 21-798)
3 | binds | ANXA5 (from UniProt P08758 1-320)
